Results published in PubChem BioAssay AID2685 (National Center for Advancing Translational Sciences (NCATS), 2010).
Out of some 320,000 compounds screened, about 2,100 (0.66%) were called active. Inconclusive results, whose numbers are uncertain, are shown with a selection of clear calls. The call rests on the fitted dose curve; in most records, active means well fitted inhibition curve with a large enough effect in the signal ratio, with a control signal flat (not every such curve was filed as active); inconclusive means small, poorly fitted or top-dose-only effect, or effect the other way, or a change in a side signal; inactive means flat fitted curve, though single readings scatter; the % refers to the signal ratio. A potency beside an inconclusive call is a rough fit, not a confirmed value.

assay: qHTS Assay for Lipid Storage Modulators in Drosophila S3 Cells; details: BODIPY lipid droplet fluorescence, 18-24 h, cells fed with added oleic acid; lipid storage change, negative = inhibition: at 46.1 µM (top of the series) unless noted
Summary of the method: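 Laser-scanning cytometry quantifies lipid droplet accumulation (500–530 nm total intensity; droplet/cell object ratio) in oleic acid-fed (400 uM added) Drosophila S3 cells treated with a concentration series. 20 uM Triacsin C defined 100% inhibition.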
On the % scale 0 is the no-effect control and ±100 the full control effect; potency means the concentration at half of the fitted maximal effect.

SMILES | lipid storage change, negative = inhibition | Potency
CCN(CC(=O)N1CCOCC1)S(=O)(=O)c1ccc(Cl)cc1 | inconclusive: 22.6% | –
CC(C)(C)C(=O)CSc1nccc(=O)[nH]1 | inconclusive: -7.58% | –
COc1ccc(Nc2nc(-c3cccnc3)cs2)c(OC)c1 | inconclusive: 22.8% | –
CN(Cc1ccccc1)C(=O)COc1cc(Cl)ccc1Cl | inconclusive: 14.5% | –
Cc1cc(C)n(-c2ccc(NC(=O)C3CCCCN3C(=O)c3ccc(C)s3)cc2)n1 (centres undefined) | inconclusive: 32% | –
COc1ccc(OCC(=O)c2c(O)c3ccccc3oc2=O)cc1 | inconclusive: -52.3% | –
CSc1ncccc1C(=O)NCC(c1cccs1)N1CCOCC1 (centres undefined) | inconclusive | –
O=C(CCn1c(=O)oc2ccccc21)NCCC1=CCCCC1 | inconclusive: 4.87% | –
CC(C)(CNC(=O)c1ccc(S(=O)(=O)Nc2ccccc2F)cc1)N1CCOCC1 | inconclusive | –
Cc1cc(C)n2nc(C(=O)OCC(=O)N(C)C3CCS(=O)(=O)C3)nc2n1 (centres undefined) | inconclusive: -77.2% | –
CCC1(CC)Cc2ccccc2-c2nc(NCCCO)[nH]c(=O)c21 | inconclusive: -0.821% | –
COc1ccc(CNC(=O)N2CCN(c3ccccc3)CC2)cc1 | – | inconclusive: 29.1 µM [falling, single point]
CCCc1cc2c(cc1NC(=O)c1ccccc1Cl)OCO2 | inconclusive: 9.47% | –
CCCN1CC(=O)N2C(c3ccccc3)c3[nH]c4ccccc4c3C[C@H]2C1=O (some centres undefined) | inconclusive: 19.7% | –
COc1ccc(NC(=O)/C(C#N)=C\c2ccc(-c3cccc(C(=O)O)c3C)o2)cc1 | inconclusive: -100% | –
CCOC(=O)C1=C(C)N=C2SC(C)C(=O)N2C1c1ccc(OC(C)=O)c(OC)c1 (centres undefined) | inconclusive: 9.31% | –
Cc1nc2ccn(Cc3ccccc3)c(=O)c2cc1C(=O)N1CCN(c2ccc(F)cc2)CC1 | – | inconclusive: 20.6 µM [activator, partial curve, poor fit]
O=C(NCCCN1CCOCC1)c1cc2ccccc2oc1=O | inconclusive: 6.07% | –
N#Cc1ccccc1Sc1ccccc1C(=O)NCC(c1ccco1)N1CCCCC1 (centres undefined) | – | inconclusive: 0.259 µM [falling, full curve, poor fit]
CCN(CC)CCN(Cc1cc2cc3c(cc2[nH]c1=O)OCO3)C(=S)NCCOC | – | inconclusive: 5.17 µM [activator, partial curve]
COc1ccc(NC2CCCN(C(=O)c3cccc(N(C)C)c3)C2)cc1 (centres undefined) | inconclusive: 13.5% | –
Cc1cccc(OCC2=N/C(=C\N(C)C)C(=O)O2)c1 | inconclusive: 13.1% | –
Cc1c(NC(=O)c2cnn3c(C(F)(F)F)cc(-c4ccco4)nc23)c(=O)n(-c2ccccc2)n1C | – | inconclusive: 32.6 µM [activator, single point]
COc1ccccc1N1CCN(C(=O)Cn2c(=O)[nH]c3ccsc3c2=O)CC1 | – | inconclusive: 29.1 µM [activator, single point]
CC1CCCC(NC(=O)Cn2cc([N+](=O)[O-])ccc2=O)C1C (centres undefined) | inconclusive: 16% | –

One compound at a time, from the list above.
CC(C)(CNC(=O)c1ccc(S(=O)(=O)Nc2ccccc2F)cc1)N1CCOCC1 is entered as lipid storage change, negative = inhibition: inconclusive
Cc1c(NC(=O)c2cnn3c(C(F)(F)F)cc(-c4ccco4)nc23)c(=O)n(-c2ccccc2)n1C is entered as Potency: inconclusive: 32.6 µM [activator, single point]
O=C(CCn1c(=O)oc2ccccc21)NCCC1=CCCCC1 is entered as lipid storage change, negative = inhibition: inconclusive: 4.87%

Further records.

SMILES | lipid storage change, negative = inhibition | Potency
O=S(=O)(c1ccc(N2CC=C(c3ccccc3)CC2)nc1)N1CCCC1 | inconclusive: 137% | –
CCN(CC(=O)Nc1ccc(C(C)=O)cc1)CC(=O)Nc1cccc(OC)c1 | – | inconclusive: 0.0052 µM [activator, full curve, poor fit]
Cc1nnc(NC(=O)CSc2nc3ccccc3o2)s1 | inactive | –
CN(NC(=O)CN1C(=O)c2ccccc2C1=O)C1=NS(=O)(=O)c2ccccc21 | – | inconclusive: 29.1 µM [falling, single point]
COc1ccc(-n2nc(C(=O)NCC(=O)N3CCCCC3)c3ccccc3c2=O)c(OC)c1 | inconclusive: -29.7% | –
Cc1ccccc1C(=O)Nc1ccnn1C1CCN(Cc2cnn(C)c2)CC1 | inconclusive: -41.9% | –
O=C1COC(c2ccccc2)=CN1Cc1ccccc1 | – | inconclusive: 29.1 µM [falling, single point]
CS(=O)(=O)N1CCN(c2ccccc2NC(=O)c2ccco2)CC1 | – | inconclusive: 32.6 µM [falling, single point]
Cn1c(=O)c2c(ncn2CC(=O)N/N=C/C=C/c2ccccc2[N+](=O)[O-])n(C)c1=O | inconclusive: 12.8% | –
COc1cc(CNc2ccc(N3CCOCC3)c(C(=O)O)c2)ccc1OCC(N)=O | inconclusive: -109% | –
NC(=O)c1ccc(Cn2c(C(=O)c3cc(Cl)c(N)c(Cl)c3)c3ccccc3[n+]2[O-])cc1 | inconclusive: 33.5% | –
CCOC(=O)C(NC(C)=O)C(=O)Nc1c(C)cccc1C (centres undefined) | inconclusive: -14.1% | –
CC(=O)c1ccc(NC(=S)NC(=O)/C=C/c2ccccc2)cc1 | – | inconclusive: 0.92 µM [activator, full curve, poor fit]
CC(OC(=O)c1ccccn1)C(=O)Nc1ccc2c(c1)OCCO2 (centres undefined) | – | inconclusive: 13 µM [activator, partial curve]
COc1ccc(-n2nc(C(=O)NCC(=O)NC3CCCCC3)c3ccccc3c2=O)c(OC)c1 | inconclusive: -7.25% | –
COc1ccc(C)cc1NC(=O)NNC(=O)c1cc2ccccc2cc1O | inconclusive: -6.37% | –
C=C1CSc2nc3ccccc3c(=O)n21 | inconclusive: 12.5% | –
CCCCc1ccc(NC(=S)Nc2ccc(Cl)c(S(=O)(=O)N(C)C)c2)cc1 | inconclusive: -63.8% | –
CN(C)c1ccc(/C=C(\NC(=O)c2ccccc2)C(=O)N/N=C/c2ccc(C(=O)O)cc2)cc1 | – | inconclusive: 11.6 µM [activator, single point]
CCOc1ccc2nc(COC(=O)c3ccncc3)c(C(=O)c3ccccc3)[n+]([O-])c2c1 | inconclusive: -49.4% | –
COc1ccc(N2CCN(C(=O)COC(=O)c3cnccn3)CC2)cc1 | inconclusive: -26.8% | –
Cc1c(C#N)c(O)[nH]c(=O)c1N=Nc1ccc(S(N)(=O)=O)cc1 | inconclusive: 12.6% | –
O=C(Nc1ccncc1)Nc1ccc(Br)cc1Cl | inconclusive: 45.4% | –
Cc1nc(C(=O)Nc2ccc(Cl)cc2)sc1C1(C)CC(c2ccccc2)=NO1 (centres undefined) | – | inconclusive: 18.4 µM [activator, partial curve]
